Results as given in US9889094B2, “Particle size reduction of an antimuscarinic compound” (CHIESI FARMACEUTICI S.p.A., priority 2013, dated 2018).

Conditions: perfluoroheptane as anti-solvent (Example 5)

physical stability of produced particles: physical stable
SMILES: C[N+]1(C)CCC(OC(=O)C(O)(c2ccccc2)C2CCCC2)C1 (racemic) [rac-glycopyrronium bromide, (3S,2′R), (3R,2′S)-3-[(cyclopentylhydroxyphenylacetyl)oxy]-1,1-dimethylpyrrolidinium bromide]
